Results as given in publication PMC9769732.
Results are given in words; binding and its absence hold for the method and conditions named. In cells and extracts the contact can be indirect. Some entries that bind do so weakly or less than the wild type. For some of these results: Sequences can lack the tags named with a protein.

How the values were obtained:
Assay in all cases: co-IP
[1] = target: T1, TANK-binding kinase 1 (TBK1), endogenous in mouse macrophages (mouse (endogenous in BMDMs)) (UniProt Q9WUN2)
T1 sequence: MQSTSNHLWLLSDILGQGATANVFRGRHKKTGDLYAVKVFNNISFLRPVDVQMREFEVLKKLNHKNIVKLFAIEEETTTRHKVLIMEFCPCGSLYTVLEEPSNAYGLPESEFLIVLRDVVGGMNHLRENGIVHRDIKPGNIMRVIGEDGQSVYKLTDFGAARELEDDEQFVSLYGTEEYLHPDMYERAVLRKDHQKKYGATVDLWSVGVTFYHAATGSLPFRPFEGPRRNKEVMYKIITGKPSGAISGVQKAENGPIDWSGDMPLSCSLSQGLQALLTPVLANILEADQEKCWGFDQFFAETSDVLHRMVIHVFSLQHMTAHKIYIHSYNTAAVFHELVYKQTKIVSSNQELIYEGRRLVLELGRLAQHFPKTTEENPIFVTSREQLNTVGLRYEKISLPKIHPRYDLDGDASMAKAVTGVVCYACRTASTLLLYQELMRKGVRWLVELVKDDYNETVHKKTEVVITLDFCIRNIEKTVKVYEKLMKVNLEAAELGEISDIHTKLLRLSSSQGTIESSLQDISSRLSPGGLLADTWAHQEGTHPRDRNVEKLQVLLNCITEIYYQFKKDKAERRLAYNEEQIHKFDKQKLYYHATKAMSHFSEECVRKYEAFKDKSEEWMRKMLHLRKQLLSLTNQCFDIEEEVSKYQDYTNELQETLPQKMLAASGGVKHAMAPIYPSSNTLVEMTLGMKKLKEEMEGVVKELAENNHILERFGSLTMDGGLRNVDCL

[2] = target: T2, Myc-tagged ubiquitin-specific protease 15 (USP15) (UniProt Q9Y4E8)
T2 sequence: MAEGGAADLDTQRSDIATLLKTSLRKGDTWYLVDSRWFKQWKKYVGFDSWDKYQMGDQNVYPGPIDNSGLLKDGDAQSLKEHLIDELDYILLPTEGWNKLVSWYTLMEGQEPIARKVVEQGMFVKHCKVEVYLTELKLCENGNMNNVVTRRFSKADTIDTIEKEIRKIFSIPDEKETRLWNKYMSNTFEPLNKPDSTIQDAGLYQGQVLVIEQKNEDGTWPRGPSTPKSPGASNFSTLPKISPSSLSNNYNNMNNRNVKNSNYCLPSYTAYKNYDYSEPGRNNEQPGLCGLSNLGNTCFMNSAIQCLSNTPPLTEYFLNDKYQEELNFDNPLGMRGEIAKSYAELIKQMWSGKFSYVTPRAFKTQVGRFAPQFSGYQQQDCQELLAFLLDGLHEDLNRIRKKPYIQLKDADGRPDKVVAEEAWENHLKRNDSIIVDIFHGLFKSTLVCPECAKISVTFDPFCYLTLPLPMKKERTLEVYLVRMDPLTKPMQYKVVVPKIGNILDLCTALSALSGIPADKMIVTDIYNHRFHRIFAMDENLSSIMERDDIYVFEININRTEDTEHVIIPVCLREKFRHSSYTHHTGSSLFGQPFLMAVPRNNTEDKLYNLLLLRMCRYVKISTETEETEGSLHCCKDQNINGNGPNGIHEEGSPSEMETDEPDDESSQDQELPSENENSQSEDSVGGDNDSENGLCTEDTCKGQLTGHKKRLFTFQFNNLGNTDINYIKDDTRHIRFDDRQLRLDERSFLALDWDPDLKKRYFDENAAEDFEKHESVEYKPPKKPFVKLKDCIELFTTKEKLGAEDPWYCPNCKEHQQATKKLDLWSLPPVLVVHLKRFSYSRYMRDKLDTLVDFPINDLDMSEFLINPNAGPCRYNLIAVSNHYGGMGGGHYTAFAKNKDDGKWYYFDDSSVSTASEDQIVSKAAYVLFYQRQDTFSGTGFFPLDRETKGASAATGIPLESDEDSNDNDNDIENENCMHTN

[3] = target: T3, Flag-tagged TANK-binding kinase 1 (TBK1) (UniProt Q9UHD2)
T3 sequence: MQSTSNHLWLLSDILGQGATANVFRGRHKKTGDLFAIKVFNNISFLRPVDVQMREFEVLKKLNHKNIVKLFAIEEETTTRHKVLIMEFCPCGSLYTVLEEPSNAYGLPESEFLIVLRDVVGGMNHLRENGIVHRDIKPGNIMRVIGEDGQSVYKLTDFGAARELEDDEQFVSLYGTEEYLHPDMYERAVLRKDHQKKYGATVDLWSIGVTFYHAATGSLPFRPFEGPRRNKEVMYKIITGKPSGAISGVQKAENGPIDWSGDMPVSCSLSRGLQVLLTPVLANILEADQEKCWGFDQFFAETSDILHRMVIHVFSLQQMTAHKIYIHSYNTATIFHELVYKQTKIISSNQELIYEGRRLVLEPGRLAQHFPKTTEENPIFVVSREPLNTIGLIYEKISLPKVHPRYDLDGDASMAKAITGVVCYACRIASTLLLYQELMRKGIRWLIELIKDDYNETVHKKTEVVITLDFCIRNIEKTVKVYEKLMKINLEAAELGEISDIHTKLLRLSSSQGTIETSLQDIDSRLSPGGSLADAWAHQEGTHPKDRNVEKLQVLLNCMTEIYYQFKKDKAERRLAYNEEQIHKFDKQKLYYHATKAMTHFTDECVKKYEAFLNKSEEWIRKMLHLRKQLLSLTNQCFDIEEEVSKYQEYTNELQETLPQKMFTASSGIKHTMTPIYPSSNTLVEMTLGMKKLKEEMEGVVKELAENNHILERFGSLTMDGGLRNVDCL

[4] = target: T4, Flag-tagged TANK-binding kinase 1 (TBK1), Q9UHD2; conditions: remark: other sources report otherwise
T4 chain: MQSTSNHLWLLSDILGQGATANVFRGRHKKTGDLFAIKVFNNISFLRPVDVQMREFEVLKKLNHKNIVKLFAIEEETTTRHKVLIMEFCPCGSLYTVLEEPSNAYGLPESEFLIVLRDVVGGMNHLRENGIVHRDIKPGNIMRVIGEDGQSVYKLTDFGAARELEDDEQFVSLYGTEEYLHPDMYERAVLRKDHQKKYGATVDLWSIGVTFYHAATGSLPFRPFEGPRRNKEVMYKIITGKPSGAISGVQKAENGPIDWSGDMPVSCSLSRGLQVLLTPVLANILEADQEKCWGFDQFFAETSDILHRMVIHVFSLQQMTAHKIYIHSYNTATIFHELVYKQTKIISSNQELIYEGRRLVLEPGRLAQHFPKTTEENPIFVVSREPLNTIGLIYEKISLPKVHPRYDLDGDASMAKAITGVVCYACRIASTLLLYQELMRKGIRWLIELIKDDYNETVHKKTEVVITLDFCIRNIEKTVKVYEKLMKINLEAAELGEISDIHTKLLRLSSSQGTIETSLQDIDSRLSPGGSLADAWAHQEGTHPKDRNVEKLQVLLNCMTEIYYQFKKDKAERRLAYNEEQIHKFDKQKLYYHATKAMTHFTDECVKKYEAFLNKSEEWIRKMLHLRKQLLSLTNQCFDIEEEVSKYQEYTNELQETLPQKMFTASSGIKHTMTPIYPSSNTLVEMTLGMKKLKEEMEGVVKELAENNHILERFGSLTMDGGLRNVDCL

B1: scavenger receptor A (SRA), endogenous in mouse macrophages (receptor, UniProt P30204 1-458)
chain: MTKEMTENQRLCPHEQEDADCSSESVKFDARSMTASLPHSTKNGPSLQEKLKSFKAALIALYLLVFAVLIPVVGIVTAQLLNWEMKNCLVCSLNTSDTSQGPMEKENTSKVEMRFTIIMEHMKDMEERIESISNSKADLIDTERFQNFSMATDQRLNDILLQLNSLISSVQEHGNSLDAISKSLQSLNMTLLDVQLHTETLNVRVRESTAKQQEDISKLEERVYKVSAEVQSVKEEQAHVEQEVKQEVRVLNNITNDLRLKDWEHSQTLKNITFIQGPPGPQGEKGDRGLTGQTGPPGAPGIRGIPGVKGDRGQIGFPGGRGNPGAPGKPGRSGSPGPKGQKGEKGSVGGSTPLKTVRLVGGSGAHEGRVEIFHQGQWGTICDDRWDIRAGQVVCRSLGYQEVLAVHKRAHFGQGTGPIWLNEVMCFGRESSIENCKINQWGVLSCSHSEDAGVTCTS
binding [1]: binds

B2: V5-tagged scavenger receptor A (SRA) (receptor, UniProt P21757 1-451)
chain: MEQWDHFHNQQEDTDSCSESVKFDARSMTALLPPNPKNSPSLQEKLKSFKAALIALYLLVFAVLIPLIGIVAAQLLKWETKNCSVSSTNANDITQSLTGKGNDSEEEMRFQEVFMEHMSNMEKRIQHILDMEANLMDTEHFQNFSMTTDQRFNDILLQLSTLFSSVQGHGNAIDEISKSLISLNTTLLDLQLNIENLNGKIQENTFKQQEEISKLEERVYNVSAEIMAMKEEQVHLEQEIKGEVKVLNNITNDLRLKDWEHSQTLRNITLIQGPPGPPGEKGDRGPTGESGPRGFPGPIGPPGLKGDRGAIGFPGSRGLPGYAGRPGNSGPKGQKGEKGSGNTLTPFTKVRLVGGSGPHEGRVEILHSGQWGTICDDRWEVRVGQVVCRSLGYPGVQAVHKAAHFGQGTGPIWLNEVFCFGRESSIEECKIRQWGTRACSHSEDAGVTCTL
binding [2]: binds | binding [3]: binds

B3: Myc-tagged ubiquitin-specific protease 15 (USP15), Q9Y4E8 1-981 (enzyme)
chain: MAEGGAADLDTQRSDIATLLKTSLRKGDTWYLVDSRWFKQWKKYVGFDSWDKYQMGDQNVYPGPIDNSGLLKDGDAQSLKEHLIDELDYILLPTEGWNKLVSWYTLMEGQEPIARKVVEQGMFVKHCKVEVYLTELKLCENGNMNNVVTRRFSKADTIDTIEKEIRKIFSIPDEKETRLWNKYMSNTFEPLNKPDSTIQDAGLYQGQVLVIEQKNEDGTWPRGPSTPKSPGASNFSTLPKISPSSLSNNYNNMNNRNVKNSNYCLPSYTAYKNYDYSEPGRNNEQPGLCGLSNLGNTCFMNSAIQCLSNTPPLTEYFLNDKYQEELNFDNPLGMRGEIAKSYAELIKQMWSGKFSYVTPRAFKTQVGRFAPQFSGYQQQDCQELLAFLLDGLHEDLNRIRKKPYIQLKDADGRPDKVVAEEAWENHLKRNDSIIVDIFHGLFKSTLVCPECAKISVTFDPFCYLTLPLPMKKERTLEVYLVRMDPLTKPMQYKVVVPKIGNILDLCTALSALSGIPADKMIVTDIYNHRFHRIFAMDENLSSIMERDDIYVFEININRTEDTEHVIIPVCLREKFRHSSYTHHTGSSLFGQPFLMAVPRNNTEDKLYNLLLLRMCRYVKISTETEETEGSLHCCKDQNINGNGPNGIHEEGSPSEMETDEPDDESSQDQELPSENENSQSEDSVGGDNDSENGLCTEDTCKGQLTGHKKRLFTFQFNNLGNTDINYIKDDTRHIRFDDRQLRLDERSFLALDWDPDLKKRYFDENAAEDFEKHESVEYKPPKKPFVKLKDCIELFTTKEKLGAEDPWYCPNCKEHQQATKKLDLWSLPPVLVVHLKRFSYSRYMRDKLDTLVDFPINDLDMSEFLINPNAGPCRYNLIAVSNHYGGMGGGHYTAFAKNKDDGKWYYFDDSSVSTASEDQIVSKAAYVLFYQRQDTFSGTGFFPLDRETKGASAATGIPLESDEDSNDNDNDIENENCMHTN
binding [4]: binds
